Measurements taken from patent US20260137707A1, “METHODS OF MODULATING ATXN2 EXPRESSION” (University of Utah Research Foundation, priority 2022, published 2026).

Tested on: ATXN2-luc
Assay: Secondary assays, Bright-Glo luciferase in H2 and S2 cells
Type: cell-based
Details: read-out: Mean IC50
Protocol: Compounds were plated at 2× concentrations in 25 μl in 384 well plates with each compound dose plated in triplicate. An equal volume of S2, H2, or SC cells (24,000 cells/well) suspended in phenol-red free Dulbecco's Modified Eagle Medium (DMEM) with 10% fetal bovine serum and 1× penicillin/streptomycin were added. Cells were grown 24 hrs then assayed first by using the CellTiter-Fluor reagent (20 μl) followed by the addition of Bright-Glo ([…]) luciferase assay, using a multimode plate reader (Beckman DT880). Values were reported as the mean±standard deviation (SD) with n=3. IC50s were determined by the Hill coefficient method using an online tool (https://www.aatbio.com/tools/ic50-calculator).
These 46 compounds were retested at 12 doses and a zero-compound dose, in multiplexed assays in 96-well plates using CellTiter-Fluor to determine cell viability, then Bright-Glo to determine luciferase expression. The values for H2 and S2 were used as replicates to calculate IC50s and to assess cell viability.
For CMV-luc and viability charts, the fitted lines are second-order polynomials. Means and SD are shown.

CC[C@@H](CO)Nc1nc(NCc2ccccc2)c2ncn(C(C)C)c2n1 [Roscovitine] gave an IC50 of 3.65 µM.
